Data source: PubChem BioAssay AID1259424 (University of Nebraska Medical Center, 2018)
The whole screen tested about 14,000 reagents; this is a part drawn at random. 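Higher correlation or smaller distance means closer resemblance to KSR1 loss; control wells, including KSR1 knockdowns, recur on many plates.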 Further read-outs or replicates are left out here. The record does not give: the time to read-out.

Test: 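Seek colon cancer survival genes behaving like KSR1, using a six-gene signature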 (primary screen)
Cell system: human HCT116 colon cancer cells
Reagents: siRNA pool against human genes, 50 nM
Detection: 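Six signature mRNAs by branched-DNA multiplex assay, scaled to two housekeeping genes and non-targeting median, log2; matched to mean KSR1 knockdown profile by Pearson correlation and euclidean distance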
Direction: mean correlation with KSR1 profile: higher = expression change more like KSR1 knockdown; mean distance from KSR1 profile: higher = expression change less like KSR1 knockdown

With knock-down of ESPL1 the results were mean correlation with KSR1 profile -0.246; mean distance from KSR1 profile 1.57.
With knock-down of MPZL1, the screen gave mean correlation with KSR1 profile -0.144; mean distance from KSR1 profile 2.63.
Depletion of CFAP298 gave: mean correlation with KSR1 profile -0.69; mean distance from KSR1 profile 2.98.
SPAG16 scored mean correlation with KSR1 profile 0.00912; mean distance from KSR1 profile 1.66.
Depletion of SRD5A1 came out at: mean correlation with KSR1 profile 0.38; mean distance from KSR1 profile 2.34.
STX7 scored mean correlation with KSR1 profile -0.569; mean distance from KSR1 profile 3.86.
After knock-down of P2RY6, the screen gave mean correlation with KSR1 profile -0.137; mean distance from KSR1 profile 4.13.

2 consecutive records already listed, for reference:
SRD5A1: mean correlation with KSR1 profile = 0.38; mean distance from KSR1 profile = 2.34
STX7: mean correlation with KSR1 profile = -0.569; mean distance from KSR1 profile = 3.86

Next results:
Silencing of TERF2IP gave: mean correlation with KSR1 profile 0.523; mean distance from KSR1 profile 1.8.
CD302 gave mean correlation with KSR1 profile 0.0488; mean distance from KSR1 profile 1.5.
With knock-down of ROPN1, the record shows mean correlation with KSR1 profile 0.43; mean distance from KSR1 profile 2.35.
After knock-down of RBMX, the record shows mean correlation with KSR1 profile -0.47; mean distance from KSR1 profile 2.53.
After knock-down of RPS3A the results were mean correlation with KSR1 profile -0.552; mean distance from KSR1 profile 1.9.
OR7A17 scored mean correlation with KSR1 profile 0.776; mean distance from KSR1 profile 2.12.
Against RPS6KB1, the entry reads mean correlation with KSR1 profile -0.0971; mean distance from KSR1 profile 3.5.
Silencing of CNGA1 came out at: mean correlation with KSR1 profile 0.345; mean distance from KSR1 profile 2.37.
EIF1AX scored mean correlation with KSR1 profile -0.576; mean distance from KSR1 profile 2.67.
Against TPT1, the values are mean correlation with KSR1 profile 0.0334; mean distance from KSR1 profile 1.88.
NXPH4 scored mean correlation with KSR1 profile 0.144; mean distance from KSR1 profile 2.52.
Silencing of NRDC came out at: mean correlation with KSR1 profile -0.491; mean distance from KSR1 profile 1.42.
